# Experimental data: the supplement of paper PMC12819154, “High-throughput peptide-centric local stability assay extends protein–ligand identification to membrane proteins, tissues and bacteria” (Nature Structural & Molecular Biology, 2025)
# Sequences of proteins named here, by UniProt entry; tags and fusion partners are left off. A change or cut given only in a name is not applied to a line headed by its entry.
# UniProt Q8BIG7: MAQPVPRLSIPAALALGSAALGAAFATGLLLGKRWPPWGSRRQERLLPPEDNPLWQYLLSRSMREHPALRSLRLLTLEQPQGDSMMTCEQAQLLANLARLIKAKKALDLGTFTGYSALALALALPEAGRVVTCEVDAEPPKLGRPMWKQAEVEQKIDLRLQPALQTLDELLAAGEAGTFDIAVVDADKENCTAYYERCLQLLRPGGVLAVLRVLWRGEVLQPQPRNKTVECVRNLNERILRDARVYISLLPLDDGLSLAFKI
# UniProt Q8BVR6: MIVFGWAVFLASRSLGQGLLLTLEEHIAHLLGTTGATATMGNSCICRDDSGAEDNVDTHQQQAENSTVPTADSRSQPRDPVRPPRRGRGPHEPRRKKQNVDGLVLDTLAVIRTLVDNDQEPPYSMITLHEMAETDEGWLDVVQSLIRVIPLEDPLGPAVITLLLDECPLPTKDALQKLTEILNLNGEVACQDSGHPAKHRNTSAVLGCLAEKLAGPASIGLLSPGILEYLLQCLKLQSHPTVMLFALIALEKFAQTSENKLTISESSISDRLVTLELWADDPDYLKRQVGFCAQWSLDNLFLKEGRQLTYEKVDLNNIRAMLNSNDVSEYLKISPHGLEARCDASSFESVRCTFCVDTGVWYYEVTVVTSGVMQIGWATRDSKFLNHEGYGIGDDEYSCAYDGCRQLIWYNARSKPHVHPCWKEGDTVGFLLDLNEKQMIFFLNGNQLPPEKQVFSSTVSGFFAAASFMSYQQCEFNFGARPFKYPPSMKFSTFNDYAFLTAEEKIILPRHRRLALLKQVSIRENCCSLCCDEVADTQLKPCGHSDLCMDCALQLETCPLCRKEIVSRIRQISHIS
# UniProt Q8CCS6: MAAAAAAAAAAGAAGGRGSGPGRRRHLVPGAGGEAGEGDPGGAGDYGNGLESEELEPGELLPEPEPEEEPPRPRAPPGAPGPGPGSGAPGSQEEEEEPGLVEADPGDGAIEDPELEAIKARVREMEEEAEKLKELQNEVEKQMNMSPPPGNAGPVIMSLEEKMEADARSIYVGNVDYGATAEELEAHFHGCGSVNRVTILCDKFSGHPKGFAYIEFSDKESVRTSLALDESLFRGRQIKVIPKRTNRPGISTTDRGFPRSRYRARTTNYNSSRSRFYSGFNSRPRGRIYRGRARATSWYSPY
# UniProt Q8C7E7: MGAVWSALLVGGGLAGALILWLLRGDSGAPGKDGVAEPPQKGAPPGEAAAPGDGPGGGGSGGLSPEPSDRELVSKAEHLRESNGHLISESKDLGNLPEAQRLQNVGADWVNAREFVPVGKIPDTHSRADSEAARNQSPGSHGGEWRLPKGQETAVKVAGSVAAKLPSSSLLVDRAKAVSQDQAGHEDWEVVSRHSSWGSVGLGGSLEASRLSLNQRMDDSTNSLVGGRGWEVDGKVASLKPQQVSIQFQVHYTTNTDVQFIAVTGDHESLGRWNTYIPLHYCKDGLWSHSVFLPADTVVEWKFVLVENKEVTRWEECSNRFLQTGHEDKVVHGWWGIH
# UniProt Q8BVI4: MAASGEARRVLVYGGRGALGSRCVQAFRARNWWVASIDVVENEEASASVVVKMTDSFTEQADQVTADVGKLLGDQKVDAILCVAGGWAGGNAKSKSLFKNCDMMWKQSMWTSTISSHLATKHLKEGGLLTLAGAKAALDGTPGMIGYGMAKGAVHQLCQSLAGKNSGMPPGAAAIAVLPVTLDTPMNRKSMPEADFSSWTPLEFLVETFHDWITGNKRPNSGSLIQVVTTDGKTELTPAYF
# UniProt Q8BHG1: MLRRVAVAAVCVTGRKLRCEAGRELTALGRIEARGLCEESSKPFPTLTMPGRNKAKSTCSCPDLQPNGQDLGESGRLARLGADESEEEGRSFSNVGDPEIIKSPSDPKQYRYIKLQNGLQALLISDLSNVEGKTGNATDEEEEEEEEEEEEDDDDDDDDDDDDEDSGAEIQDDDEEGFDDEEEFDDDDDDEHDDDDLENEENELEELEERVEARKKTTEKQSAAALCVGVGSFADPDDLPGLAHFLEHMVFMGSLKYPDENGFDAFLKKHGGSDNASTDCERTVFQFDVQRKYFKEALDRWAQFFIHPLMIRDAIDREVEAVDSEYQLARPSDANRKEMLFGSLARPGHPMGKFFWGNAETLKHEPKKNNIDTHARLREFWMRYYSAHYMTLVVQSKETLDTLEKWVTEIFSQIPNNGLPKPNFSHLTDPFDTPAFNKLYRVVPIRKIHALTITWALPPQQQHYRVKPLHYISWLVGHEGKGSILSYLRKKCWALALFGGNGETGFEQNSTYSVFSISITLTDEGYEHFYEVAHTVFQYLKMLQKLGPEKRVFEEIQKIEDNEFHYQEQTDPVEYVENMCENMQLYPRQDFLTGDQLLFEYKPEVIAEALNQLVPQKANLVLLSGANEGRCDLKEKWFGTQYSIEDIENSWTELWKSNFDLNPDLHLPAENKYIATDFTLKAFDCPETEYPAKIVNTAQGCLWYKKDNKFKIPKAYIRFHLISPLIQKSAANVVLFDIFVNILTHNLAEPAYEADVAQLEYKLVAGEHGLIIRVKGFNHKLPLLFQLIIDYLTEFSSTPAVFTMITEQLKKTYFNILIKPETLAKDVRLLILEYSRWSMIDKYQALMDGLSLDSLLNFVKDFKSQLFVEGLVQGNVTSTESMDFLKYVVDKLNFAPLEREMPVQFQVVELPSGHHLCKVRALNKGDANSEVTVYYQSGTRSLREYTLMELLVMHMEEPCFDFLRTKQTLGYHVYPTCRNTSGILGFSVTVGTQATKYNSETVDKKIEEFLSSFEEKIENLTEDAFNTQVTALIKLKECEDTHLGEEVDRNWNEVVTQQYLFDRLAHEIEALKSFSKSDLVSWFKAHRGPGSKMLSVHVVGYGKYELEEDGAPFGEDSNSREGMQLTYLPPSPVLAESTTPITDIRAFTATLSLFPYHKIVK
# UniProt Q8BLY1: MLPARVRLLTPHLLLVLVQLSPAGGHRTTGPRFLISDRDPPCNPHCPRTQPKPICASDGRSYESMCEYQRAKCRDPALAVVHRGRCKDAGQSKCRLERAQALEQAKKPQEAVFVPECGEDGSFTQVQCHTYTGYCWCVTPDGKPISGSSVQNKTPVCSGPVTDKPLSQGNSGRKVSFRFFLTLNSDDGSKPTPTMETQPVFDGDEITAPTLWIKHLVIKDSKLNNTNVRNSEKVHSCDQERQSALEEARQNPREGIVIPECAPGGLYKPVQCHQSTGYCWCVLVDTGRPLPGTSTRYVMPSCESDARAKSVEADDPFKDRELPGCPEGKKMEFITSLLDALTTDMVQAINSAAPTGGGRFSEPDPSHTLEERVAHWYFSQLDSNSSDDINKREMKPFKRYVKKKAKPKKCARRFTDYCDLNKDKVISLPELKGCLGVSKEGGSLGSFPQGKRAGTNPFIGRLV
# UniProt Q8C525: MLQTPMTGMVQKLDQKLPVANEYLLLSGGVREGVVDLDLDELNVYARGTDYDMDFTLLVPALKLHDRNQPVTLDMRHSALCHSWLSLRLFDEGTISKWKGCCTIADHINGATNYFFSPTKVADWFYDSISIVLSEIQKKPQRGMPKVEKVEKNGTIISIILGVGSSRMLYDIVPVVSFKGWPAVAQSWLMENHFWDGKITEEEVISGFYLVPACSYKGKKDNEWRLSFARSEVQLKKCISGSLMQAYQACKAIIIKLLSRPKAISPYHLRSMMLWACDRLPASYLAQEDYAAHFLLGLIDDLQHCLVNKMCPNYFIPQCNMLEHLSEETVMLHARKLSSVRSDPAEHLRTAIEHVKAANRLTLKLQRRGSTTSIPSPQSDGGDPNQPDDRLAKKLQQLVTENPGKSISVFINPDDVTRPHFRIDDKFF
# UniProt Q8BHL3: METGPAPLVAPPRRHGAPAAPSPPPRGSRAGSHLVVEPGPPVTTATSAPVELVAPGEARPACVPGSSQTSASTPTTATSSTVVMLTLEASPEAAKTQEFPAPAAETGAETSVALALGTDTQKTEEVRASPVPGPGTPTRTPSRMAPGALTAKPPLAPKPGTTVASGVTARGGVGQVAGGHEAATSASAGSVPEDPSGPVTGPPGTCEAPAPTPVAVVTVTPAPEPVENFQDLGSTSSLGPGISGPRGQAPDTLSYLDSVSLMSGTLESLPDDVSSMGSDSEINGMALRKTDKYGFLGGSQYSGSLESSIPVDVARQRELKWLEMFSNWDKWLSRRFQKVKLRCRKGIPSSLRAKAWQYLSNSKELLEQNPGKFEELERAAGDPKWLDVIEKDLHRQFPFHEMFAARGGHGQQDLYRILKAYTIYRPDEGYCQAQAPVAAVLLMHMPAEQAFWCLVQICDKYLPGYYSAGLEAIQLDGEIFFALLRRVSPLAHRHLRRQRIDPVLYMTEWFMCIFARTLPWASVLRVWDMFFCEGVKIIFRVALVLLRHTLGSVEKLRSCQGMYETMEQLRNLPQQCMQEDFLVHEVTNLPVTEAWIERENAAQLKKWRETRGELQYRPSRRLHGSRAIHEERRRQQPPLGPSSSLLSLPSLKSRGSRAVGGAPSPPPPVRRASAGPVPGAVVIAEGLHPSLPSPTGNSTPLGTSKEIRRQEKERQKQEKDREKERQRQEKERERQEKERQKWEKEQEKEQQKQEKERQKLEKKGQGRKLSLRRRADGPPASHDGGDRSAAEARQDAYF
# UniProt Q8BHG9: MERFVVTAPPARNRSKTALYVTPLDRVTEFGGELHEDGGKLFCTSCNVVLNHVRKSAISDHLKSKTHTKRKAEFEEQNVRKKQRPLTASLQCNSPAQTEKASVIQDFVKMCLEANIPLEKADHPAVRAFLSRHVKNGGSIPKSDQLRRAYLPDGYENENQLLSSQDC
# UniProt Q8BH35, whole entry: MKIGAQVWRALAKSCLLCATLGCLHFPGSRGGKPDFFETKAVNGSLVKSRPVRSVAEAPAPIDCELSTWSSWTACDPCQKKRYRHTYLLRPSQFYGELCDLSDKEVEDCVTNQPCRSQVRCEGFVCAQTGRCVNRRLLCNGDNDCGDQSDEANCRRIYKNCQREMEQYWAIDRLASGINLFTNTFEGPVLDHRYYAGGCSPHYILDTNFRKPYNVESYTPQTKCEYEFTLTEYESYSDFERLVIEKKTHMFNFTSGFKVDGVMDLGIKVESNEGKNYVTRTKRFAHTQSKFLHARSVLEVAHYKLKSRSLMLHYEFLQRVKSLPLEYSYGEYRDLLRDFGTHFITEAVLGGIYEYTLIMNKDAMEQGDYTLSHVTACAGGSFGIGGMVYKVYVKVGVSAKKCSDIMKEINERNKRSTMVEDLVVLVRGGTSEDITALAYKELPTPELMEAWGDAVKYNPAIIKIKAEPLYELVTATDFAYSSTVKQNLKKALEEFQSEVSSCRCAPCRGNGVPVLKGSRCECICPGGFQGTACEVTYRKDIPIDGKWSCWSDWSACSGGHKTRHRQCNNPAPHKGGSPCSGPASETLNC
# UniProt Q8BWM0: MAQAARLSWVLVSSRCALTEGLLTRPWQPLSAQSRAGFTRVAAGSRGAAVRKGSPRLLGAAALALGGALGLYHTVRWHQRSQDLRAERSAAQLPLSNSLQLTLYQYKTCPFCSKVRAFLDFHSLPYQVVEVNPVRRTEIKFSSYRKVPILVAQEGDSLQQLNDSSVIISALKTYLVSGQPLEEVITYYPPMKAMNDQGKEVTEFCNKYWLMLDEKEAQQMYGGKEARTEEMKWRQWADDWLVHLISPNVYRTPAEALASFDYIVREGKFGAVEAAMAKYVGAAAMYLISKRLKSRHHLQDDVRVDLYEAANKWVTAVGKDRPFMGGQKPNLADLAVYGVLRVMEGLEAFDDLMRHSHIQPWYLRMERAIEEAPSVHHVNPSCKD
# UniProt Q8BNX1: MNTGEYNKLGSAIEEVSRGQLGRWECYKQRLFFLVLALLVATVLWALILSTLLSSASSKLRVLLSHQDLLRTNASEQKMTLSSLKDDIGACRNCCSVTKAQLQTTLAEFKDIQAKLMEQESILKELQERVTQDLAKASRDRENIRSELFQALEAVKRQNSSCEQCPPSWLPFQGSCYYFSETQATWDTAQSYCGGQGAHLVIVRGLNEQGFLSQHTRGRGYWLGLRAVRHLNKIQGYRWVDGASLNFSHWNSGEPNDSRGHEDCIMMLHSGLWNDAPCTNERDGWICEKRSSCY
# UniProt Q8C1B7: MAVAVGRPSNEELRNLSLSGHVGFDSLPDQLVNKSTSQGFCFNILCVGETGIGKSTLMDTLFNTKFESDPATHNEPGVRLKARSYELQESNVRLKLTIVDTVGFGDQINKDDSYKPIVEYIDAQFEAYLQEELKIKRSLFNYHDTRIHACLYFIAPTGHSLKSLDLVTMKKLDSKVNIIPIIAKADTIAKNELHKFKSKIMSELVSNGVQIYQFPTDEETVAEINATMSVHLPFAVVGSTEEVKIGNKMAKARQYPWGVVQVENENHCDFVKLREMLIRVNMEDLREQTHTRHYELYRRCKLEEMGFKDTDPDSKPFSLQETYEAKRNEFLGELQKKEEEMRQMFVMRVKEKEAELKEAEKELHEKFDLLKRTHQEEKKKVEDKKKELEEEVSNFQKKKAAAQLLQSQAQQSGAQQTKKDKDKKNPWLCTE
# Some of the results follow. Small differences around the control level are noise.
# Compound: CN[C@@H]1C[C@H]2O[C@@](C)([C@@H]1OC)n1c3ccccc3c3c4c(c5c6ccccc6n2c5c31)C(=O)NC4 [staurosporine]
# Assay: log2 fold change of pooled soluble protein (PISA), ligand vs vehicle (log2 ratio); higher = more thermally stabilized
# Details: ligand concentration: 20 uM; assay format: PISA pool 52.9/55.5/58.6 C
row,Target,log2 fold change of pooled soluble protein
1,UniProt Q8BH58,0.136
2,UniProt Q8BIG7,0.219
3,UniProt Q8BVR6,0.0559
4,UniProt Q8BUX5,0.12
5,UniProt Q8BWQ6,-0.0269
6,UniProt Q8BP48,0.0168
7,UniProt Q8CCS6,-0.0755
8,UniProt Q8BH24,-0.0489
9,UniProt Q8C7E7,-0.127
10,UniProt Q8C650,-0.301
11,UniProt Q8CCM6,0.0694
12,UniProt Q8BVI4,-0.0974
13,UniProt Q8BVF2,0.115
14,UniProt Q8BVV7,0.718
15,UniProt Q8BRF7,-0.0182
16,UniProt Q8BJU0,0.0619
17,UniProt Q8BTY1,-0.0861
18,UniProt Q8BHG1,0.122

row,Target,log2 fold change of pooled soluble protein
1,UniProt Q8BLY1,0.0284
2,UniProt Q8BIZ6,0.103
3,UniProt Q8C525,-0.00588
4,UniProt Q8BHL3,-0.261
5,UniProt Q8BHN3,-0.012
6,UniProt Q8BU30,0.0145
7,UniProt Q8BI72,0.045
8,UniProt Q8BHG9,-0.159
9,UniProt Q8BH35,0.124
10,UniProt Q8BWM0,-0.0469
11,UniProt Q8BWG8,-0.178
12,UniProt Q8C052,-0.343
13,UniProt Q8BNX1,-0.00471
14,UniProt Q8C1B7,-0.0761
15,UniProt Q8CE96,0.0239
16,UniProt Q8BX90,-0.332
17,UniProt Q8BSF4,0.0398
18,UniProt Q8BHJ9,-0.112

# For convenience, some entries already given:
row,Target,log2 fold change of pooled soluble protein
2,UniProt Q8BIZ6,0.103
3,UniProt Q8C525,-0.00588
